# Some results were stated once for a whole list of compounds, not compound by compound.
# Target: T1, recombinant active full-length human MEK7 (Homo sapiens, UniProt O14733)
# T1 construct: recombinant active full-length human MEK7 (Carna Biosciences); purchased Carna Biosciences
# T1 sequence (O14733 1-419): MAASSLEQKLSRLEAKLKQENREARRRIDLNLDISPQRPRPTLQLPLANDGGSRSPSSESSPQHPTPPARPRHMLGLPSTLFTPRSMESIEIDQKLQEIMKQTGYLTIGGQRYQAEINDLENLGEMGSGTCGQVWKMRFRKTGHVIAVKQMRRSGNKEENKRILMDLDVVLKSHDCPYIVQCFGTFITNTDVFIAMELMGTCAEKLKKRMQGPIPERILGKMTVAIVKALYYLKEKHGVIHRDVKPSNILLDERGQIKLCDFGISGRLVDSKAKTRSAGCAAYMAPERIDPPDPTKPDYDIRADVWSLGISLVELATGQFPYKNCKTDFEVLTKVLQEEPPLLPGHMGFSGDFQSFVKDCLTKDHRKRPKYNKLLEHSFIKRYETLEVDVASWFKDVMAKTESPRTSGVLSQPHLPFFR
# Test: ADP-Glo kinase activity assay, MEK7 with JNK1 substrate
# Format: biochemical
# Conditions: comparison within the series
# Method: Procedure for a 5 μL Kinase reaction using the ADP-Glo Kinase Assay Kit from Promega. Staurosporine was used as the positive control, and DMSO (vehicle) was employed as the negative control. Activity of recombinant active full-length human MEK7 (Carna Biosciences) was measured with recombinant full-length human substrate JNK1 (MAPK8). Using a Mantis, a mixture of MEK7 and JNK1 was dispensed into a 384-well low volume white Proxiplate. For each well, 4 ng of MEK7 and 600 ng of JNK1 in kinase buffer (CST) were used, accounting for 1 μL of this mixture per well. Inhibitor was prepared in a DMSO solution (40 mM). A dose-response dilution was performed in a 384-well Echo transfer plate. Using an Echo Access, 10 nL of each solution was dispensed into the same 384-well low volume white Proxiplate as above. This mixture was allowed to incubate for 30 minutes at room temperature. Using a Mantis, 1 uL of an 8 μM ATP solution was added to each well, and the plate was allowed to incubate for another 1 hour at room temperature. Using the Mantis again, 4 μL of ADP Glo Reagent was dispensed into each well, and the plate was allowed to incubate for 45 min at room temperature. Finally, 9 μL of Kinase Detection Reagent was added manually to each well, and the plate was allowed to incubate for 45 minutes at room temperature. Luminescence was read on a Synergy Neo2 Plate Reader with filter cubes 3 and 114. Integration time was set to 0.20 seconds, gain set to 160, and read height set at 6 mm. All experiments were performed in triplicate on the plate, and at least in one separate technical duplicate was performed.
# MEK4 selectivity was performed in the same manner with activated MEK4 (Carna Biosciences). Here, p-38α was employed as the kinase substrate in lieu of JNK1 due to the availability of reagents. […] Potency determined by duplicate of triplicates corresponded to a IC50 value, which is in line with the ratio difference observed among other covalent inhibitors (for examples, see Cell Chem. Biol. 2020, 27, 1285).
row,SMILES,"in vitro activity against MAP2K7, in words"
1,"COc1ccc(CCNc2cc(Oc3cccc(NC(=O)CCl)c3)ncn2)cc1 [Compound 21, 2-chloro-N-(3-((6-((4-methoxyphenethyl)amino)pyrimidin-4-yl)oxy)phenyl)acetamide]",lowered potency
2,"COc1ccc(CCNc2cc(Oc3cccc(NC(=O)CCl)c3)ncn2)cc1OC [Compound 22, 2-chloro-N-(3-((6-((3,4-dimethoxyphenethyl)amino)pyrimidin-4-yl)oxy)phenyl)acetamide]",lowered potency
3,"O=C(CCl)Nc1cccc(Oc2cc(NCCc3ccc4c(c3)OCO4)ncn2)c1 [Compound 23, N-(3-((6-((2-(benzo[d][1,3]dioxol-5-yl)ethyl)amino)pyrimidin-4-yl)oxy)phenyl)-2-chloroacetamide]",lowered potency

# From patent US20250049791A1, “Synthesis of MEK7 Inhibitors and methods of Use Thereof” (Northwestern University, priority 2023, published 2025)
